# Laboratory results as given in the supplement of paper PMC12819154, “High-throughput peptide-centric local stability assay extends protein–ligand identification to membrane proteins, tissues and bacteria” (Nature Structural & Molecular Biology, 2025).
# The chains behind the UniProt entries cited, without tags or fusion partners. Where a name states a change or a piece, a line headed by the entry shows the natural chain unless it says otherwise.
# UniProt Q8TCF1: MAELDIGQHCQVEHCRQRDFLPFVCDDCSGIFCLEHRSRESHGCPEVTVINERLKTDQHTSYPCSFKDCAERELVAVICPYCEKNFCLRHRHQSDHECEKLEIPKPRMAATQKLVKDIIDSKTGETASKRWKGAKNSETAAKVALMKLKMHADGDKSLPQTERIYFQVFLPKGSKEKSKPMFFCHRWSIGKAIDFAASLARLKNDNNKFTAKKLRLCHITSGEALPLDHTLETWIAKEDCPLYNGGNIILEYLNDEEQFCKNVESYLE
# UniProt Q8WTW3: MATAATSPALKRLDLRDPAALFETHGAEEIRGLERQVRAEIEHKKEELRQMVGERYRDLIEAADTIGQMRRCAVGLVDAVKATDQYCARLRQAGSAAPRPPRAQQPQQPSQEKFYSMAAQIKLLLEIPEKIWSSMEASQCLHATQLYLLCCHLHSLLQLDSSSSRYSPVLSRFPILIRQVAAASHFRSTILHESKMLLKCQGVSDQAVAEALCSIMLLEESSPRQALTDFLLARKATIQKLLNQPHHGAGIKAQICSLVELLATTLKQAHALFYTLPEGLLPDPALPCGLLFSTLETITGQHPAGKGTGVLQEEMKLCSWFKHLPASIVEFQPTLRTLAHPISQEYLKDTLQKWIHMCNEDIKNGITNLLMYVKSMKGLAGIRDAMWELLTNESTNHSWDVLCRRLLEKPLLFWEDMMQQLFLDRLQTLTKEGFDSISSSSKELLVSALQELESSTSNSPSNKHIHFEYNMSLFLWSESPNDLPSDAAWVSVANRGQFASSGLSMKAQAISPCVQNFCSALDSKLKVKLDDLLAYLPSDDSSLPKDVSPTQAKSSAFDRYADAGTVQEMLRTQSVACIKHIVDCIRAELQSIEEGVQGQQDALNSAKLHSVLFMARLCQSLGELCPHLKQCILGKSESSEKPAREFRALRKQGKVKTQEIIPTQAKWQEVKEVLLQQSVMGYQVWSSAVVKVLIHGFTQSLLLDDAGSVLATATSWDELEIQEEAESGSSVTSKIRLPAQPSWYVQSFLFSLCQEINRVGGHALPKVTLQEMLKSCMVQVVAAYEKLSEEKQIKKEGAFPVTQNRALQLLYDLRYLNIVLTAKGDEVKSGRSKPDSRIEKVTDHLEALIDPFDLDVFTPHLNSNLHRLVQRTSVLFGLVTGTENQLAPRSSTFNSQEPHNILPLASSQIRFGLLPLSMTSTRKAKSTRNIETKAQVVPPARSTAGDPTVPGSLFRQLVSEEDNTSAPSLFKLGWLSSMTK
# UniProt Q8TCU4: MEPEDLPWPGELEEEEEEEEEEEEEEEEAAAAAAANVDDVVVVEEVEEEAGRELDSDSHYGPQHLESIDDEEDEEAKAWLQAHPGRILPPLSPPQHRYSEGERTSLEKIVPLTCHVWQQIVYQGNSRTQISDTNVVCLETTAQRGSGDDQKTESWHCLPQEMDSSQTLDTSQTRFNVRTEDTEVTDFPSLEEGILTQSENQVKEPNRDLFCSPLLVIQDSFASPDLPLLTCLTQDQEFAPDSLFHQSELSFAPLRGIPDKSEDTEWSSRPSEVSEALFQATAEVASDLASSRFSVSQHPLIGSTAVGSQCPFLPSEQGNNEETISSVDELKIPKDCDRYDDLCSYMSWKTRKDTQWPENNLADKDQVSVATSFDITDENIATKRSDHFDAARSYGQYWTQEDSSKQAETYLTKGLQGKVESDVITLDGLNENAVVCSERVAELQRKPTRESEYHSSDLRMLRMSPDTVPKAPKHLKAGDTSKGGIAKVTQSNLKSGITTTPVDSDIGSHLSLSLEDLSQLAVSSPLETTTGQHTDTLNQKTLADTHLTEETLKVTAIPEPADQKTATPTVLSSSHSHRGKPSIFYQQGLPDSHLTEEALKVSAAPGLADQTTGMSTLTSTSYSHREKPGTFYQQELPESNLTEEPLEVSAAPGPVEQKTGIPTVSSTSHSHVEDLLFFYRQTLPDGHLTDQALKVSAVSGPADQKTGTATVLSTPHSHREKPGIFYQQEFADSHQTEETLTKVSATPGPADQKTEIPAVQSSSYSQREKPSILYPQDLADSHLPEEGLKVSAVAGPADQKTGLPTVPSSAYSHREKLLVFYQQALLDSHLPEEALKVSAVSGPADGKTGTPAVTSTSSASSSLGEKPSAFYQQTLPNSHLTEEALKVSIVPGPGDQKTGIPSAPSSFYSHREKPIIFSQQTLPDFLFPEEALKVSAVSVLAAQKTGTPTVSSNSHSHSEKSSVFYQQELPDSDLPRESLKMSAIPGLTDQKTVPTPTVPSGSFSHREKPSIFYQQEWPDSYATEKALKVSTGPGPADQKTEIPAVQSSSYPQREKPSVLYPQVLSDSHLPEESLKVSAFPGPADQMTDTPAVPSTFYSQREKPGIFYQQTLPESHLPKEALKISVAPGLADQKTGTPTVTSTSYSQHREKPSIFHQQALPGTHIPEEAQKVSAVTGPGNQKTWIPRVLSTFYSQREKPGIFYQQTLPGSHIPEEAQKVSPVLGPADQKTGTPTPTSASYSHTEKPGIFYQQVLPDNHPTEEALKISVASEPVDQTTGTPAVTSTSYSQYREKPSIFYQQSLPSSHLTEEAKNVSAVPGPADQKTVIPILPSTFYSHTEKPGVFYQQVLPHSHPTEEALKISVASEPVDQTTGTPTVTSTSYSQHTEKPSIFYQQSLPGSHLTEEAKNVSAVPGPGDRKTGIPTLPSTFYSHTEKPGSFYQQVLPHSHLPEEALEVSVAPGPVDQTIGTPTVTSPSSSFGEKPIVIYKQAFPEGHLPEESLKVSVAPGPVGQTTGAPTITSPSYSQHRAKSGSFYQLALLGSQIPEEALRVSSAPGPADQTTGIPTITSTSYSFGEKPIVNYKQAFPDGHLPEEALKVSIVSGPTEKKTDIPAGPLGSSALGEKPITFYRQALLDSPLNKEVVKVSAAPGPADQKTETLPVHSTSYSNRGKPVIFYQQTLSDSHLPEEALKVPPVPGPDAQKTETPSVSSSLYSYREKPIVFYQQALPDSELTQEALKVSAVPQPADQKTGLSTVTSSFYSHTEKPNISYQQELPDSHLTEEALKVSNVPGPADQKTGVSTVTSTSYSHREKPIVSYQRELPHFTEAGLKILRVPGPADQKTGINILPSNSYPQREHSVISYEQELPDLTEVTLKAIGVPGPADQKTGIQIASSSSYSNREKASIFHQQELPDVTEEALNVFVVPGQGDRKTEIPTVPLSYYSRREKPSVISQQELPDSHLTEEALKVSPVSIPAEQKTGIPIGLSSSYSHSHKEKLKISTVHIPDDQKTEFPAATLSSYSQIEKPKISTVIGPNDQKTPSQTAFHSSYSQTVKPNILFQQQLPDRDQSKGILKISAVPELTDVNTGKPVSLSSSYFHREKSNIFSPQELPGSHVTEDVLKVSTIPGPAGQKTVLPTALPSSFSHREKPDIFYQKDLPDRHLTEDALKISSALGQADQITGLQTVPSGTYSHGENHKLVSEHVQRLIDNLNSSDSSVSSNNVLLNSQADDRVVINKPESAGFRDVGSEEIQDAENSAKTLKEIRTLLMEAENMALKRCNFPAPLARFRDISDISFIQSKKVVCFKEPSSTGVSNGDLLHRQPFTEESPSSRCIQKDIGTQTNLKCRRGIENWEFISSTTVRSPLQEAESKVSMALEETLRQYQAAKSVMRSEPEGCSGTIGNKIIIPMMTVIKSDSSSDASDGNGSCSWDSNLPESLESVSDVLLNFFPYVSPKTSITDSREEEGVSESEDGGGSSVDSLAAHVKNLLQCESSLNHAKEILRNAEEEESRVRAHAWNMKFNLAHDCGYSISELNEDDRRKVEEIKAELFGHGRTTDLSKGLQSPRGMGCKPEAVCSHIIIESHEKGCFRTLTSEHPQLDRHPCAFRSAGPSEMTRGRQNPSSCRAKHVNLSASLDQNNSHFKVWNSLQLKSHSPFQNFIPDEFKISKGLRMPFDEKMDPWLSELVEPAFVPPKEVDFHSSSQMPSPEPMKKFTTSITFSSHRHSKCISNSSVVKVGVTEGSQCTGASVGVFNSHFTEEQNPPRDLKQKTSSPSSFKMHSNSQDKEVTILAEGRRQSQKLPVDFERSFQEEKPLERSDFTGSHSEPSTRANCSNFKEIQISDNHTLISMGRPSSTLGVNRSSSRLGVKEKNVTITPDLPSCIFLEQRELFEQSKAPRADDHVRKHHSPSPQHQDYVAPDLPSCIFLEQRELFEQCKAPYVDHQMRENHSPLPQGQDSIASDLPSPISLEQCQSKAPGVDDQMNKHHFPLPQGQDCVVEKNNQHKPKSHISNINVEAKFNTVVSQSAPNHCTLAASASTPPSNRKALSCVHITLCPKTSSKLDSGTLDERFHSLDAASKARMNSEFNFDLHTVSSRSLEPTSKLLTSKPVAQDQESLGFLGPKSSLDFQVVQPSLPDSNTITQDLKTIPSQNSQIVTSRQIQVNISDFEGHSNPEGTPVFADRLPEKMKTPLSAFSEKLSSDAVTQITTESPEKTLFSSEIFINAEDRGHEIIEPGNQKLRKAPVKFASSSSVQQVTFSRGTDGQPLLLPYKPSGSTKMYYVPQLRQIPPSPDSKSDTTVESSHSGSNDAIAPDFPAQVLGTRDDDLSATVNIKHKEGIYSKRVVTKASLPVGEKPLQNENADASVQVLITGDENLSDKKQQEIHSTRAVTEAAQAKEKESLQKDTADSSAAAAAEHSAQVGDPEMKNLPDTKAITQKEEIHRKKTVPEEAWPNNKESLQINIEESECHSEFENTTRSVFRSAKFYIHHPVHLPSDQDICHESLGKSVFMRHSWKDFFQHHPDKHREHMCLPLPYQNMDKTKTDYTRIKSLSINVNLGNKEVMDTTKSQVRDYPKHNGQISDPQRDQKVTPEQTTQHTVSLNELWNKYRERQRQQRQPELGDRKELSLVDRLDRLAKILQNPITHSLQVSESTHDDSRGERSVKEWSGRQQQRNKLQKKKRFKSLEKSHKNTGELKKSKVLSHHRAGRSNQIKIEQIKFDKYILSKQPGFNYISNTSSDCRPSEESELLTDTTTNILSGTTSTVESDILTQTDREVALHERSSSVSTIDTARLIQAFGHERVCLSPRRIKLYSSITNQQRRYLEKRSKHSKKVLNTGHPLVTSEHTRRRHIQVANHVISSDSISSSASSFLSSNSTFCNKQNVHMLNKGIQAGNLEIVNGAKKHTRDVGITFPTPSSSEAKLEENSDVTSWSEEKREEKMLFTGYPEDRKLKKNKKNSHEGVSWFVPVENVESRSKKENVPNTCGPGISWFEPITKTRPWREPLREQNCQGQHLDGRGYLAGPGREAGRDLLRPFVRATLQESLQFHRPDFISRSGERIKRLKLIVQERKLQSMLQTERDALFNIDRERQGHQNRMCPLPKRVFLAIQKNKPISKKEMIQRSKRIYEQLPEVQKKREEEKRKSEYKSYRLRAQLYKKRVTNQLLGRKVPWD
# UniProt Q8WVE0: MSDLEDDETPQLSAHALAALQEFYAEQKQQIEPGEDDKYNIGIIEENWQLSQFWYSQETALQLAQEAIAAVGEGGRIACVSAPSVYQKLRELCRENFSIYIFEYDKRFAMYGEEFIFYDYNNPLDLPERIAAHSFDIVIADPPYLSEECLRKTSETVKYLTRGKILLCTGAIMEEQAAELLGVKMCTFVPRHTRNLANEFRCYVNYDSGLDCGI
# UniProt Q8WXD5: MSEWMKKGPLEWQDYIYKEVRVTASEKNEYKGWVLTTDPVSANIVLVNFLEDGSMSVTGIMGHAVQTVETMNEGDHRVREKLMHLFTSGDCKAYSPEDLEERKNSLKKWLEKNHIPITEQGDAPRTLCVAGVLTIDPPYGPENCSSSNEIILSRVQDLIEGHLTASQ
# UniProt Q92499: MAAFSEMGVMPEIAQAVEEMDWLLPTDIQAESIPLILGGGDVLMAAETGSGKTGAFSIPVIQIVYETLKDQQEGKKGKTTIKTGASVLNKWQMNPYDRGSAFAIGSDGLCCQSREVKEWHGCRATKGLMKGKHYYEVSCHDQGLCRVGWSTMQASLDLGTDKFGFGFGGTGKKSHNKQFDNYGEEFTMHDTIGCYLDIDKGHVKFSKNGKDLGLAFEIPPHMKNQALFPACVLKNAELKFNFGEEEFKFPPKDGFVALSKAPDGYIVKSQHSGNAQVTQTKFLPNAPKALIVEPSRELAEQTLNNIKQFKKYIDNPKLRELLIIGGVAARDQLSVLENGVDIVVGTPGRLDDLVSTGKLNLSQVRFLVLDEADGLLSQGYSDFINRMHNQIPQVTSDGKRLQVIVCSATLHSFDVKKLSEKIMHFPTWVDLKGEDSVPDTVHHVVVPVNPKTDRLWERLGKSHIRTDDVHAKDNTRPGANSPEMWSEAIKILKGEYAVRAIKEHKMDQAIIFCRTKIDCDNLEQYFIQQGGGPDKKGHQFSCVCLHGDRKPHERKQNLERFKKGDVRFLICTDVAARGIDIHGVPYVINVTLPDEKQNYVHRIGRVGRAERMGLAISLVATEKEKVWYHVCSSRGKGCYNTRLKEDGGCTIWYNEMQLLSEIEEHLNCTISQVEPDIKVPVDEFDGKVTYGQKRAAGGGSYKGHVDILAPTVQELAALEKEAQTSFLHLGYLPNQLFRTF
# This is one part of the list. Most entries show no effect beyond the scatter of the controls.
# Compound: Cc1nc(Nc2ncc(C(=O)Nc3c(C)cccc3Cl)s2)cc(N2CCN(CCO)CC2)n1 [dasatinib]
# Experiment: log2 fold change of tryptic peptide abundance, ligand vs vehicle (limited proteolysis) (log2 ratio); higher = more trypsin-susceptible (destabilized)
# Details: ligand concentration: 5 uM; sample: K562 cleared lysate
row,Target,log2 fold change
1,"ZFAND1 (peptide sequence: LKMHADGDK, peptide start residue: 148) (UniProt Q8TCF1)",-0.708
2,"COG1 (peptide sequence: DPAALFETHGAEEIR, peptide start residue: 17) (UniProt Q8WTW3)",0.806
3,"ALMS1 (peptide sequence: DISDISFIQSK, peptide start residue: 2288) (UniProt Q8TCU4)",0.488
4,"PREX1 (peptide sequence: DSYSECNSNR, peptide start residue: 1168) (UniProt Q8TCU6)",-0.315
5,"EPS8L1 (peptide sequence: VSELEAVMEK, peptide start residue: 700) (UniProt Q8TE68)",0.433
6,"UniProt Q8WVE0 (peptide sequence: MCTFVPR, peptide start residue: 185)",0.144
7,"GEMIN6 (peptide sequence: KGPLEWQDYIYK, peptide start residue: 7) (UniProt Q8WXD5)",0.412
8,"DDX1 (peptide sequence: ELAEQTLNNIK, peptide start residue: 297) (UniProt Q92499)",-0.194
